Results deposited as PubChem BioAssay AID1671195 (Yale University, 2021)
Shown is one part, drawn at random, of about 22,000 reagents. About 1,510 of all reagents (6.9%) were called active. 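Active includes knockdowns raising or lowering LDL uptake; positive z-scores mean more uptake, negative mean less.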 Unmarked entries are inactive.

- Aim: 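Knockdowns that increase or decrease uptake of fluorescent LDL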 (primary screen)
- Cells: human Huh7 hepatoma cells
- Reagent: siRNA pool against human genes, 18 nM
- Duration: about 2 to 2.5 days of knockdown, then 8 h LDL uptake
- Treatment: DiI-labelled LDL at 30 µg/ml for 8 h, in lipoprotein-deficient serum medium
- Detection: 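Fluorescent LDL signal imaged in cells, scaled to the plate median, robust z-score for each replicate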
- Direction: robust z-score: higher = more LDL uptake after knockdown
- Hit rule: 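a gene counts as active if at least two replicate z-scores exceed ±2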

The opening 7 records, to show the layout:
no.	Gene	robust z-score, replicate 1	robust z-score, replicate 2	robust z-score, replicate 3
1	PKIB	-0.727	-1.22	-1.1
2	PHKB	0.148	-0.6	0.0429
3	ZNF761	-1.57	-1.03	-1.11
4	PCDHGA2	-0.433	-0.579	-0.409
5	LOC338731 (retired record)	0.575	0.631	0.84
6	RIPK2	-0.245	-0.713	-0.534
7	GSN	-1.75	0.136	-2.2

Main list, repeating the preview:
no.	Gene	robust z-score, replicate 1	robust z-score, replicate 2	robust z-score, replicate 3
1	PKIB	-0.727	-1.22	-1.1
2	PHKB	0.148	-0.6	0.0429
3	ZNF761	-1.57	-1.03	-1.11
4	PCDHGA2	-0.433	-0.579	-0.409
5	LOC338731 (retired record)	0.575	0.631	0.84
6	RIPK2	-0.245	-0.713	-0.534
7	GSN	-1.75	0.136	-2.2
8	HSPA6	-0.588	-0.651	-0.402
9	LOC388639 (retired record)	-1.41	-1.46	-1.07
10	CPLANE1	-1.98 (active)	-2.01	-1.99
11	MESD	1.34	0.575	0.901
12	RFLNB	-0.762	-0.489	-0.478
13	AARD	2.5	1.88	1.83
14	KLK13	0.473	0.87	0.748
15	FAM240C	0.626	0.504	0.475
16	MGAT2	2.14 (active)	1.23	2.11
17	OVOS2P	-0.217	0.651	0.663
18	ELOC	1.11	0.793	1.33
19	CRABP1	-0.223	-0.897	0.0691
20	FIGLA	0.22	0.0362	0.0226
21	INE1	-0.497	-0.472	0.349
22	ALG2	-1.13	-0.406	-1.03
23	OLIG3	-0.793	-0.911	-0.56
24	TRIM28	-0.71	-1.08	-0.902
25	TXNDC16	-1.03	-1.45	0.67
26	LOC441103 (retired record)	-0.135	-0.544	-0.355
27	OR2D2	-1.05	-0.782	-1.06
28	SLTM	0.598	-0.0931	0.246
29	YY2	1.45	1.15	1.38
30	SLC6A15	0.275	0.487	-0.127
31	VN1R17P	-0.831	-0.852	-0.889
32	IL21	-0.598	-0.171	-0.102
33	PROSER2	-0.763	-0.445	-0.301
34	MARK2P21	0.341	0.723	0.353
35	OR6C75	-1.33	-0.847	-1.42
36	EPS15L1	0.311	0.474	0.988
37	PNPLA1	-1.75	-1.76	-1.49
38	ZNF835	-1.51	-1.54	-1.49
39	ACAD10	1.39	1.14	1.22
40	SLC16A12	-0.154	0.349	0.681
41	DAOA-AS1	-0.83	-0.532	-0.815
42	ANXA9	1.02	-0.954	-0.115
43	ITGA8	-0.264	-1.64	-1.55
44	BMAL2	-0.399	-0.113	0.094
45	ZNF579	0.0348	0.0178	0.284
46	TVP23B	-1.84	1.24	1.39
47	ZNF599	1.83	0.948	1.1
48	LOC391555 (retired record)	0.469	0.456	0.0369
49	CALCRL	2.66 (active)	1.08	2.45
50	LOC400475 (retired record)	-1.1	-0.575	-0.641
51	CSRP2	-1.84	-0.889	-1.6
52	RAX	-0.455	0.979	0.872
53	NME2	-0.205	-0.986	-0.462
54	LOC441850 (retired record)	-0.357	0.0453	-0.232
55	CALCR	4.1 (active)	1.75	3.15
56	SCN9A	-0.117	-0.865	-0.0659
57	NOVA1-DT	0.727	0.284	0.819
58	NUP210P1	-1.52	-1.35	-1.21
59	GOLGA5	-0.801	-0.903	1.68
60	LOC440613 (retired record)	0.0315	0.0398	0.477
61	UTP15	-1.15	-1.13	-1.41
62	LIM2	0.224	1.18	0.79
63	GOLPH3	-0.941	-0.364	-0.506
64	ADCYAP1	-1.75	-1.65	-1.43
65	TAS2R3	-1	-1.47	-0.675
66	KRTAP5-11	0.567	0.0964	0.501
67	BST1	-0.223	-0.663	-0.439
68	TTC29	-0.695	-0.156	0.206
